PubChem BioAssay AID743121 – NCATS, 2013

Purpose: 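Knock-downs that sensitise breast cancer cells to camptothecin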 (primary screen)
System: MDA-MB-231 cells, a human breast cancer line
Knock-down reagent: single siRNA against human genes, 20 nM siRNA (0.8 pmol per well)
Time to read-out: 120 h (drug added 48 h after transfection, read 72 h later)
Treatment: camptothecin 20 nM (about EC30) for 72 h; vehicle 0.1% DMSO in parallel plates
Read-out: 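CellTiter-Glo ATP signal, scaled to control siRNA as percent viability; sensitisation given as log2 of untreated divided by camptothecin-treated viability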
Direction: log2 vehicle/camptothecin viability: higher = stronger sensitisation to camptothecin
Rule for the call: 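Active genes have an RSA gene-level p-value below 0.001, computed from the ratios of their separate siRNAs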
Shown is an unselected part of about 26,000 reagents tested. Of all reagents, 167 (0.63%) got an active call. 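Calls are per gene from RSA p-values that are not deposited; an individual active-marked siRNA can sensitise only weakly.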 Unmarked entries are inactive. The numbers tell different reagents against one gene apart. Not all columns of the deposit are shown. Reagent sequences are not shown.

CSNK1E #1 — log2 vehicle/camptothecin viability: -0.204
CSNK1E #2 — log2 vehicle/camptothecin viability: -0.0994
CSNK1E #3 — log2 vehicle/camptothecin viability: -0.283
CSNK1E #4 — log2 vehicle/camptothecin viability: 0.00355
FSD1 #1 — log2 vehicle/camptothecin viability: -0.153
FSD1 #2 — log2 vehicle/camptothecin viability: -0.922
FSD1 #3 — log2 vehicle/camptothecin viability: -0.107
ABCD2 #1 — log2 vehicle/camptothecin viability: -0.103
ABCD2 #2 — log2 vehicle/camptothecin viability: -0.21
ABCD2 #3 — log2 vehicle/camptothecin viability: -0.286
ABCD2 #4 — log2 vehicle/camptothecin viability: -0.811
AURKC #1 — log2 vehicle/camptothecin viability: 0.00258
AURKC #2 — log2 vehicle/camptothecin viability: -0.0498
AURKC #3 — log2 vehicle/camptothecin viability: -0.342
AURKC #4 — log2 vehicle/camptothecin viability: -0.214

4 consecutive entries from above, quoted:
CSNK1E #2 — log2 vehicle/camptothecin viability: -0.0994
CSNK1E #3 — log2 vehicle/camptothecin viability: -0.283
CSNK1E #4 — log2 vehicle/camptothecin viability: 0.00355
FSD1 #1 — log2 vehicle/camptothecin viability: -0.153

The list goes on.
SIVA1 #1 — log2 vehicle/camptothecin viability: 0.0422
SIVA1 #2 — log2 vehicle/camptothecin viability: 0.468
SIVA1 #3 — log2 vehicle/camptothecin viability: -0.718
SIVA1 #4 — log2 vehicle/camptothecin viability: 0.385
SIVA1 #5 — log2 vehicle/camptothecin viability: -0.527
SIVA1 #6 — log2 vehicle/camptothecin viability: -0.374
CD3D #1 — log2 vehicle/camptothecin viability: 0.191
CD3D #2 — log2 vehicle/camptothecin viability: 0.267
CD3D #3 — log2 vehicle/camptothecin viability: -0.301
CD3D #4 — log2 vehicle/camptothecin viability: -0.0811
